The results in this text go back to article doi:10.1101/2023.03.14.532574.

In experiment [1] the target is recombinant human dynein tail complex (human). In words: affinity purification with mass spectrometry.
Experiment [2] has the same target. Description: affinity purification with mass spectrometry. This is another data set of the same source.
For experiment [3] the target is unchanged. In words: condition: only without exogenous dynactin in the extract.

These are yes or no findings as the source states them, for the method shown. Binding seen in cells or lysates may run through a third protein. Here binding means that the protein was enriched with, or labelled near, the bait; the list need not be complete. No binding means not detected with the bait.

B1: γ-synergin of the mouse brain extract (protein, UniProt Q5SV85 1-1306)
chain: MALRPGAGASGAAGAGAGPGGAGSFMFPVAGGMRPPQAGLIPMQQQGFPMVSVMQPNMQGMMGMNYSSQMSQGPIAMQAGIPMGPMPAAGVPFLGQPPFLSMRPAGPQYTPDMQKQFAEEQQKRFEQQQKLLEEERKRRQFEEQKQKLRLLSSVKPKTGEKNRDDALEAIKGNLDGFSRDAKMHPTPASHPKKQGPSLEEKLLVSCDVSASGQEHIKLNTPDAGHKAIVPGSSKNCPGLMAHNRGAVDGCVSGPASAEAEKTSDQTLSKEESGVGVFPSQDPAQSRMPPWIYNESLVPDAYKKILETTMTPTGIDTAKLYPILMSSGLPRETLGQIWALANRTTPGRLTKEELYTVLAMVAVTQRGVPAMSPDALSQFPAAPIPTLSGFPMTLPTPVSQPTAMPSGPTGSMPLTLGQPIMGINLVGPVGGAAAPTSSGFMPAYPSNQVGKTEEDDFQDFQDASKSGSIDDSFTDFQEMPASSKTSNSQHGNSAPSLLIPFPGTKASTDKYAVFKGISTDKPSENPASFGESGDKYSAFRELEQTTDSKPLGESFAEFRSTGTDDGFTDFKTADSVSPLEPPTKDTFPSAFASGAAQQTQTQVKTPLNLEDLDMFSSVDCSGEKQVPFSATFSTAKSVSTRPQPAGSAAASAALASTKTSSLADDFGEFNLFGEYSNPASAGEQDDFADFMAFGNSSISSEPKASDKYEALREEVSPSPLSSSTVEGAQHPPAAATKYDVFKQLSLEGAGLAMEEFKENTSSTKSEDDFADFHSSKFSSTSSDKSLGEKAVAFRHAKEDSSSVKSLDLPSIGGSSVGKEDSEDALSVQFDMKLADVGGDLKHVMSDSSLDLPTVSGQHPPAADTEDLSCAAFGSCSSHFTVSTLTSCEWSDRADALQGRKLSPFVLSAGSRSFSATSNLHTKEISFGSSENITMSSLSKGSALASEDALPETAFPAFASFKDMMPQTTEQKEFESGDFQDFTRQDMPTVDRSQETSCPSPASSVASHETPKEGADDFGEFQSEKSKISKFDFLVANSQSKMKSSEEMIKSELATFDLSVQGSHKRSLSLGDKEISRSSPSPALEQPFRDRSNTLSERAALPVIRDKYKDLTGEVEENERYAYEWQRCLGSALDVIKKANDTLNGISSSAVCTEVIQSAQGMEYLLGVVEVYRVTKRVELGIKATAVCSEKLQQLLKDIDKVWNNLIGFMSLATLTPDENSLDFSSCMLRPGIKNAQELACGVCLLNVDSRSRKEETPAEEQPKKAFNSETDSFKLAYGGHQYHASCANFWINCVEPKPPGLLLPDLL
Regarding B1, the binding result in experiment [1] and in experiment [2] was “no binding” throughout.

B2: Wdr91 (protein, UniProt Q7TMQ7 1-748)
chain: MAEAVERTDELVREYLLFRGFTHTLRQLDAEIKADKEKGFRVDKIVDQLQQLMQVYDLAALRDYWSYLERRLFSRLEDIYRPTINKLKTSLFRFYLVYTIQTNRNDKAQEFFAKQATELQNQAEWKDWFVLPFLPSPDTNPTFATYFSRQWADTFIISLHNFLSVLFQCMPVPVILNFDAECQRTNQVQEENEVLRQKLFALQAEIHRLKKEEQQQEEEAAALVQHKLPPYVSSMDRLGDSELALVCSQRPASLSQSPRVGFLSSLLPQSKKSPSRLSPAQGPPQAQSSAKKDSFSSQATKGKDSVPGAKDGKSLLSGPVPGEASWTHQRQRRLQDHGKERRELLSTSSSQSQCAERKPEVSGAEAEPCLELHMGPVEVLARVSTAGSEGDRPEQPFIVLSQEEYGEHHSSIMHCRVDCSGRRVASLDVDGVIKVWSFNPIMQTKASSISKSPLLSLEWATKRDRLLLLGSGVGTVRLYDTEAKKNLCEININDDMPRILSLACSPNGASFVCSAAAPSLTSQTDSSAPDIGSKGMNQVPGKLLLWDTKTMKQQLQFSLDPEPIAINCTAFNHNGNLLVTGAADGVIRLFDMQQHECAMSWKAHCGEVYSVEFSCDENAVYSIGEDRKFIQWNIHKSGLKVSESNLPSDATGPFVLSGYSGYKQVQVPRGRLFAFDSEGNYMLTCSATGGLIYKLGSEEKVLENCLSLGGHRAPVVTVDWSTAMDCGTCLTASMDGKIKLTTLLAHKL
Consider B2, for which the results for the binding entry in experiment [2] and in experiment [3] were “binds” and “no binding”, respectively.

B3: Ndel1 (protein, UniProt Q9ERR1 1-345)
chain: MDGEDIPDFSSLKEETAYWKELSLKYKQSFQEARDELVEFQEGSRELEAELEAQLVQAEQRNRDLQADNQRLKYEVEALKEKLEHQYAQSYKQVSVLEDDLSQTRAIKEQLHKYVRELEQANDDLERAKRATIVSLEDFEQRLNQAIERNAFLESELDEKESLLVSVQRLKDEARDLRQELAVRERQQEVTRKSAPSSPTLDCEKMDSAVQASLSLPATPVGKGTENSFPSPKAIPNGFGTSPLTPSARISALNIVGDLLRKVGALESKLAACRNFAKDQASRKSYVPGSVNCGVMNSNGPECPRSGRATFFHKGAVNGFDPAPPPPGLGSSRPSSAPGMLPLSV
For the molecule B3, the binding result in experiment [2] is “binds”.

B4: Aftiphilin of the mouse brain extract (protein, UniProt Q80WT5 1-931)
chain: MEPDIIRMYSSSPPPLDNGAEDDEEDEFGEFGGFSEVSPSGVGFVDFDTPDYTRPKEDFVPSNHFMPIHEYSEDVDSLTSFKSVQNGNDKDITAELSTPVKSQSDVVLSTTSKEMIPSKTLDPSIDGMESLEDLDKVVVQGPSTGQLRSFSPGDFRTDKNIVHQTKQLESCNGEKPPCLEILTNGFAGLETVNPQGTDDLDNVADSKGSKPLNTCGTECILESAASHATEFADFSTFSQTERTQLEEIECPVLNDGDTLTIQGNSKGPRVKELNCVKEVTLDGSFEDTGNTEREHQVCVSEIHAVADRGLSVEKQDLQTLQQDEFLNSRIQSEAWSLVDSSENSEAITKERCKMEKNDLFASKCADLSMDSVKTSDVNEIGSSKEENRKLTNPKSPDPDPTGQNALDDSAASMKNGDSGNGFVTCHDTNEDDFGDFGTANGTTPPFVTSTQDSMSDVTFEDSSEHFLHLSEPGDDFGEFEDTNAVSCQEEMRFTESDLRQTSDGLSEECPLAGESGGKDSKPDSKLKNGQDSEFGDFDSVPNTQGSAFQDSDDFADFSSAGPSQAVDWNAFEDEQKDGCSWAAFGDQQETESHHLKEVWQSQRTDETMGTLGTPKMHSVSSAASKGAVASGHLQEPGTSVQTALLNRLERIFEACFPSVFVPDVEEEVSSLKHLLETHSSPAKTREALADRGELRGVWTELQDIHDAHGLRYQWGGSHSNKKLLCSLGIDTRNILFTGNKKQPVIVPMYAAGLGMLEPTKEPLKPLSAAEKIASIGQTTVMTPEINTCTSDPFQESLPPVQFDWSSSGLTNPLDASGGSTLLNLDFFGPVDDSSSSSSTIPGVDPELYELTTAKLETSTSSLRVTDAFAKLMSTVEKTSTSTRKPKREEHLSEEAMKVIASLPDLTFMHAKVLMFPATLTPSMSSQEQADA
For the molecule B4, the binding entry in experiment [1] and in experiment [2] was “no binding” each time.

B5: Dynlrb2 (protein, UniProt Q9DAJ5 1-96)
chain: MTEVEETLKRIQSHKGVIGTMVVNAEGIPIRTTLDNSTTVQYAGLLHQLTMKAKSTVRDIDPQNDLTFLRIRSKKHEIMVAPDKEYLLIVIQNPCE
As to B5, the binding result in experiment [2] was “binds”.
